Measured values reported in patent publication CN111840217A.
Positions count from the first letter of the chain named. No constants are given. Whether binding was seen depends on the method and setting. Some binding calls cover weakened binding; strength is not graded here. For part of these data: Sequences can lack the tags named with a protein.

T1: IL-17RA-ECD-His (UniProt Q96F46)
T1 sequence (looked up): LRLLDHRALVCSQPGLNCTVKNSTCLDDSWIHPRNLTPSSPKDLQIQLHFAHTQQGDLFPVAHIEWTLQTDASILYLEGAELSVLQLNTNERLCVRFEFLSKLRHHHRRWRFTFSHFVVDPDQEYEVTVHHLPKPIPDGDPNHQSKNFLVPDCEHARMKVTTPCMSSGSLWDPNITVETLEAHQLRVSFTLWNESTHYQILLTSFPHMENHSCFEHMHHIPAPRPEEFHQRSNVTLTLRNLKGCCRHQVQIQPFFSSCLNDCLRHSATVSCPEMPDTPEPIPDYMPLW

T2: 过表达IL-17RA的CHO细胞表面的IL-17RA (UniProt Q96F46)
T2 sequence (looked up): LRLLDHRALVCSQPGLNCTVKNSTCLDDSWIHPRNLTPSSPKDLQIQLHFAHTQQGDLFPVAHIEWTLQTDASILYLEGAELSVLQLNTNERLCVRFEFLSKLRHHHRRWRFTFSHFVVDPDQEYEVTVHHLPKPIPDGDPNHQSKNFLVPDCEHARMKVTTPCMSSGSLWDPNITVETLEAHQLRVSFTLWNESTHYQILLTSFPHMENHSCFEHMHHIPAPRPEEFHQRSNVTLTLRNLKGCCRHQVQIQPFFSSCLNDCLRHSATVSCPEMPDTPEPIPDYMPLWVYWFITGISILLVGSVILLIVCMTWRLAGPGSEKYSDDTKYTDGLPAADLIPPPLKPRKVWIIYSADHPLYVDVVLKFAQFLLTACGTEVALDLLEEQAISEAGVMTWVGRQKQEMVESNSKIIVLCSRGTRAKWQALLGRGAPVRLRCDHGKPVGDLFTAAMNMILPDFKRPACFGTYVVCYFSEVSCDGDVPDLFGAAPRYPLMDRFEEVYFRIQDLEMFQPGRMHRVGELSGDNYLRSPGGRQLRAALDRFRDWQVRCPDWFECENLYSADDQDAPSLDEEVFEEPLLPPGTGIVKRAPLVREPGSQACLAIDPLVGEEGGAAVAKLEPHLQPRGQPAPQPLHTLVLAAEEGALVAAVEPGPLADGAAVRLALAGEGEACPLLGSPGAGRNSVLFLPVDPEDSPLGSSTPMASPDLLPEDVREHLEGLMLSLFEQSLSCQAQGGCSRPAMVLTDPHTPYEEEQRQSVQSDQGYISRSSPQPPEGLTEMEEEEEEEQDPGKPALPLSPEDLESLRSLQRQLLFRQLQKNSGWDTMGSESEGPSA

B1: mAb-1单克隆纯化噬菌体 (scFv, V domains shown)
VH: QVQLVQSGAEVKKPGASVKVSCKASGYSYSNYGISWVRQAPGQGLEWMGWISTYSGNTNYSKKLKGRVTMTTDTSTSTAYMELRSLRSDDTAVYYCARRVLRLDYWGQGTLVTVSS
VL: DIQMTQSPSSLSASVGDRVTITCRASQDIDSSLNWYQQKPGKAPKLLIYAASNRESGVPSRFSGSGSGTDFTLTISSLQPEDFATYYCQQWANMPGTFGQGTKVEIK
B2: mAb-10单克隆纯化噬菌体 (scFv, V domains shown)
VH: B1 VH with Y29F, N31S, S61A, L64F
VL: DIQMTQSPSSLSASVGDRVTITCRASQSVHTGLNWYQQKPGKAPKLLIYGASNLQSGVPSRFSGSGSGTDFTLTISSLQPEDFATYYCQQFEHNPLTFGQGIKVEIK
B3: mAb-11单克隆纯化噬菌体 (scFv, V domains shown)
VH: B1 VH with S28A, Y29W, S30T, N31R, S61A, L64F
VL: B2 VL
B4: mAb-4单克隆纯化噬菌体 (scFv, V domains shown)
VH: B1 VH with S28A, S61A, L64F, K65I
VL: B1 VL
B5: mAb-8单克隆纯化噬菌体 (scFv, V domains shown)
VH: B1 VH with S28G, Y29F, S30A, N31S, Y32R, S61A, L64F, K65E
VL: B2 VL
B6: mAb-9单克隆纯化噬菌体 (scFv, V domains shown)
VH: B1 VH with S28T, Y29W, S30T, N31S, S61A, L64F, K65L
VL: B2 VL
B7: mAb-1全抗体 (antibody, human IgG1, kappa, V domains shown)
VH: B1 VH
VL: DIQMTQSPSSLSASVGDRVTITCRASQDIDSSLNWYQQKPGKAPKLLIYAASNRESGVPSRFSGSGSGTDFTLTISSLQPEDFATYYCQQWANMPGTFGQGTKVEIKR
B8: mAb-4全抗体 (antibody, human IgG1, kappa, V domains shown)
VH: B1 VH with S28A, S61A, L64F, K65I
VL: B7 VL
B9: mAb-8全抗体 (antibody, human IgG1, kappa, V domains shown)
VH: B1 VH with S28G, Y29F, S30A, N31S, Y32R, S61A, L64F, K65E
VL: DIQMTQSPSSLSASVGDRVTITCRASQSVHTGLNWYQQKPGKAPKLLIYGASNLQSGVPSRFSGSGSGTDFTLTISSLQPEDFATYYCQQFEHNPLTFGQGIKVEIKR
B10: mAb-9全抗体 (antibody, human IgG1, kappa, V domains shown)
VH: B1 VH with S28T, Y29W, S30T, N31S, S61A, L64F, K65L
VL: B9 VL
B11: mAb-10全抗体 (antibody, human IgG1, kappa, V domains shown)
VH: B1 VH with Y29F, N31S, S61A, L64F
VL: B9 VL
B12: mAb-11全抗体 (antibody, human IgG1, kappa, V domains shown)
VH: B1 VH with S28A, Y29W, S30T, N31R, S61A, L64F
VL: B9 VL

Molecular target: T1, IL-17RA-ECD-His
Assay: phage ELISA, serial dilution, IL-17RA-ECD-His coated

binding, binds:
B1, B2, B3, B4, B5, B6

Molecular target: T2, 过表达IL-17RA的CHO细胞表面的IL-17RA
Assay: flow cytometry on CHO cells overexpressing IL-17RA

binding, binds:
B7, B8, B9, B10, B11, B12

Molecular target: T1, IL-17RA-ECD-His
Assay: ELISA, IL-17RA-ECD-His coated, full antibody

binding, binds:
B7, B8, B9, B10, B11, B12
